# Data from the supplement of paper PMC12067093, “Discovery and optimisation of a covalent ligand for TRIM25 and its application to targeted protein ubiquitination” (Chemical Science, 2025).
# This is one part of the list.
# Biological target: T1, POLL_Q9UGP5_73_QIVQHGGQLCPAQGPGVTHIVVDEGMDYER (UniProt Q9UGP5)
# T1 sequence (whole entry): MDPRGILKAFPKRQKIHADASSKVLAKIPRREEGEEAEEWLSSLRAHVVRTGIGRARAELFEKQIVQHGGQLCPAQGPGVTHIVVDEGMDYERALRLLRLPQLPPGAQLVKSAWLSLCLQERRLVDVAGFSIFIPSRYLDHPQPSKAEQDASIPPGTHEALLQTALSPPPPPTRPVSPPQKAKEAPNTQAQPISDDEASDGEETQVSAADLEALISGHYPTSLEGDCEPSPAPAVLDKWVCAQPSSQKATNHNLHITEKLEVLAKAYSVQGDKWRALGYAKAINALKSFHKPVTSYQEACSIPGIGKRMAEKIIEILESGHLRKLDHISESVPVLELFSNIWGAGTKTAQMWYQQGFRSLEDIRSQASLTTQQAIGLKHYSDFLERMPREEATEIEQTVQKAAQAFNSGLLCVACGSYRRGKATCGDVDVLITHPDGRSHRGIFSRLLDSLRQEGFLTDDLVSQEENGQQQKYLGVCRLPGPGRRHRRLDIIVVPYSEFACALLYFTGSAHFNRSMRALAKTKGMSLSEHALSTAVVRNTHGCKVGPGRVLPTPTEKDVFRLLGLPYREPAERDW
# Assay: probe-labelled cysteine peptide fold change vs DMSO (competition) (log2 fold change); higher = less target engagement (more negative = stronger competition)
# Details: THP-1, incubation time: 4 h
# 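Also: competitive chemoproteomic profiling in live THP-1 cells with an iodoacetamide desthiobiotin (IA-DTB) probe, comparing probe-labelled peptide intensities in compound-treated cells against DMSO-treated controls.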
structure (smiles),measurement,setting,value
CC1Cc2ccccc2N1C(=O)C1CCCN(C(=O)CCl)C1 (mixture of isomers) [TRIM25 ligand 11 (diastereomer mixture)],probe-labelled cysteine peptide fold change,10 µM,-0.0542
same,probe-labelled cysteine peptide fold change,50 µM,0.496
